Binding data for 3 molecules are collected here from article doi:10.1101/2020.10.21.349183.

The chains behind the UniProt entries cited, without tags or fusion partners.
UniProt O60016: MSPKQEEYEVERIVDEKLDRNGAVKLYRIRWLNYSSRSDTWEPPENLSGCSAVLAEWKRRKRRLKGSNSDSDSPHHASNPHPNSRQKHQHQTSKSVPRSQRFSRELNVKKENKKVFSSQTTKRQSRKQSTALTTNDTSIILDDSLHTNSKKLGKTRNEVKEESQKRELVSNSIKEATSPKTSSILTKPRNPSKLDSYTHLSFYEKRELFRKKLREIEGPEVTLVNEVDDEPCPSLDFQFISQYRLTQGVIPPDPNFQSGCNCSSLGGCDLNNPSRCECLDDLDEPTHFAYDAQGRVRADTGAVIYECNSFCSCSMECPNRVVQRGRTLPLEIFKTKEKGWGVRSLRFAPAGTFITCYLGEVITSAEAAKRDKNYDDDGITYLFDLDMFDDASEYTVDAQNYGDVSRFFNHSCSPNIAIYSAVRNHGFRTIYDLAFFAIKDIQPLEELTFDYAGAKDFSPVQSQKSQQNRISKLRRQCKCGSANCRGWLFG

Results are given in words; binding and its absence hold for the method and conditions named. For part of these data: In cells and extracts the contact can be indirect. Some results given as binding are weak or reduced against the parent protein; the word gives no strength. Where a sequence is shown, tags or fusion partners need not be part of it.

Assay [1] has as its target GST-tagged Clr4 (S. pombe) (UniProt O60016). Kind of assay: pull-down.
Assay [2] deals with Clr4 (two-hybrid fusion) (S. pombe) (UniProt O60016). Put plainly: two-hybrid.
In assay [3] the target is T1, myc-tagged Polδ (S. pombe) (UniProt P30316).
T1 sequence: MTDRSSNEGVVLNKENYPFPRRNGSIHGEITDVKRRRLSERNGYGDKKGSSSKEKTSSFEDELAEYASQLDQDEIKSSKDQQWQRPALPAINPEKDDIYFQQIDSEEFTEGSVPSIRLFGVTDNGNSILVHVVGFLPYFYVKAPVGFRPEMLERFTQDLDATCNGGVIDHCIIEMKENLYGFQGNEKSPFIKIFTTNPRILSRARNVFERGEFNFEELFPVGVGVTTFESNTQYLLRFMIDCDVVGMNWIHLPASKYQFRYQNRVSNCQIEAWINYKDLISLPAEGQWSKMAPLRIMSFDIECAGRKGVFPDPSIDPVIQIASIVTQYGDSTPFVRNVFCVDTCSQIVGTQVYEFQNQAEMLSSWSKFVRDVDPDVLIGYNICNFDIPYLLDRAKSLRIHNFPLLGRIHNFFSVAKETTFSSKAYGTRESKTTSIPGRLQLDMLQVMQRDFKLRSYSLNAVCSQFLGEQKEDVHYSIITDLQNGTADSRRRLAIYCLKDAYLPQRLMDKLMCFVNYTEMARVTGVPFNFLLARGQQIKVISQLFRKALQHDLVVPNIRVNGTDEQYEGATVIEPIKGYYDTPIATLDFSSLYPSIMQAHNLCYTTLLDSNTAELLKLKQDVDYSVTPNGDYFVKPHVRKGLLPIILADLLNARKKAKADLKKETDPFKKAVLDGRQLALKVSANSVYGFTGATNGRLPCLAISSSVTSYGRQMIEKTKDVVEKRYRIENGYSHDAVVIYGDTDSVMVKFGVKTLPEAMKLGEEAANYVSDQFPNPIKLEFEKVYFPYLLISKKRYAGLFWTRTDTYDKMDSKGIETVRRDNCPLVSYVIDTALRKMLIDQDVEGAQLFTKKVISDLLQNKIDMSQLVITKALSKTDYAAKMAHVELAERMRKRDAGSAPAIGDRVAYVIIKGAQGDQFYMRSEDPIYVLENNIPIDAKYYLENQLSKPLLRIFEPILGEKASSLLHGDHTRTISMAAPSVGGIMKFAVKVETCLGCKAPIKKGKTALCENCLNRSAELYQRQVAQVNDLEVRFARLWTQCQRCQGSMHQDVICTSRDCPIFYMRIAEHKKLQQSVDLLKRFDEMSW
Kind of assay: co-IP.

B1: MBP-tagged Polα (enzyme, UniProt P28040 1-1405)
chain: MRKRNAGIKPSQRFAELRALRQAGKTRASTYESKENEELYDNVSEEEYRKIVRQRLDEDDFVVDDNGAGYVDNGYDEWDQSHYSDEDDENEKGSSGRKRKKSKNVLAEPNQQIGAFFKANAIQPASRIANRKNNEKEDEFMAEILGSIDQDIPERLSTKKGNRSHTTSNAKRRSQKAASSISTTNVVSSDPKKYIPETVPSTPQPASSLPIPSSPPAALETEENVDSQPMELDEPELPVGSDAPIIDVEESIAMKPLMSHDQVDDTASLSKATISQQPLSPMTPLSSELDVSAFSEINSKIKNVDVPASSYSSPISKVSPSDVTEEDGSLFFFWMDYTEMYGSLCLFGKVYDKATKQYVSCFLKVDGIMRSLYFLPRPSSSSVSEDSIAAQTKDVYDEVANLLSKRGVKEWKSRVSKYKYAFELEDVPRTADYLEVIYSYSYPALPTDLTGSSFSHVFGTNTALFEQFVLSRRVMGPCWLKIQQPNFDAVKNASWCRVEIGCSSPQNISVSFEKNEITSKTPPMTVMSLAFRTLINKEQNKQEVVMISARIFENVDIEKGLPANDMPSYSFSLIRPLKQIFPNGFEKLARQHKSSIFCERSEVSLLNNFLNKVRTYDPDVYFGHDFEMCYSVLLSRLKERKIHNWSSIGRLRRSEWPRSFNRSSQQFVEKQIIAGRLMCDLSNDFGRSMIKAQSWSLSEIVLKELDIKRQDINQEKALQSWTDTAHGLLDYLVHCEIDTFFIAAVAFKIQMLQLSKNLTNIAGNSWARTLTGTRAERNEYILLHEFKKNGYIVPDKQQSIRRHAEAFGAEDGLQEESLGKKKDKYKGGLVFEPQKGLYETCILVMDFNSLYPSIIQEYNICFTTVDRSPSNSDSDDQIPDTPSASANQGIFPRLIANLVERRRQIKGLLKDNSATPTQRLQWDIQQQALKLTANSMYGCLGYTKSRFYARPLAVLITYKGREALMNTKELADQMGLQVIYGDTDSVMLNTNVTDKNHALRIGNEFKEKVNERYSKLEIDIDNVYQRMLLHAKKKYAALQLDSQGKPNLDVKGLDMKRREFCTLAKEASKFCLDQILSGELTETVIENIHSYLMDFSEKMRNGKFPANKFIIFNRLGKNPEDYPNGKTMPFVQVALKKKARGENVRVGDVIPFIIAGSDADGHPADRAYSPQEIMNTNSTLVIDYNYYLSHQILPPIERVIAPIEGTNRARLAECLGLDARKYYSHETSESSAFQRYESTLTDDQCFINVSPLLLKCPSCNATSFSLRSVKSLKETLYANTVECDCGYEYSDFTIILQFSSQLRDFINLYYEGILVCDDSSCGNRTRQMSVYGKRCCNKSCRGSVHFEYNDEQLYNQIKFLLKAVQTTTGATRNGIIRCNAINKNISRIMNKNAREFVDMGLIFSS
Turning to B1, the binding entry in assay [1] was “binds”.

B2: Polα (two-hybrid fusion) (enzyme, UniProt P28040 1-1405)
chain: MRKRNAGIKPSQRFAELRALRQAGKTRASTYESKENEELYDNVSEEEYRKIVRQRLDEDDFVVDDNGAGYVDNGYDEWDQSHYSDEDDENEKGSSGRKRKKSKNVLAEPNQQIGAFFKANAIQPASRIANRKNNEKEDEFMAEILGSIDQDIPERLSTKKGNRSHTTSNAKRRSQKAASSISTTNVVSSDPKKYIPETVPSTPQPASSLPIPSSPPAALETEENVDSQPMELDEPELPVGSDAPIIDVEESIAMKPLMSHDQVDDTASLSKATISQQPLSPMTPLSSELDVSAFSEINSKIKNVDVPASSYSSPISKVSPSDVTEEDGSLFFFWMDYTEMYGSLCLFGKVYDKATKQYVSCFLKVDGIMRSLYFLPRPSSSSVSEDSIAAQTKDVYDEVANLLSKRGVKEWKSRVSKYKYAFELEDVPRTADYLEVIYSYSYPALPTDLTGSSFSHVFGTNTALFEQFVLSRRVMGPCWLKIQQPNFDAVKNASWCRVEIGCSSPQNISVSFEKNEITSKTPPMTVMSLAFRTLINKEQNKQEVVMISARIFENVDIEKGLPANDMPSYSFSLIRPLKQIFPNGFEKLARQHKSSIFCERSEVSLLNNFLNKVRTYDPDVYFGHDFEMCYSVLLSRLKERKIHNWSSIGRLRRSEWPRSFNRSSQQFVEKQIIAGRLMCDLSNDFGRSMIKAQSWSLSEIVLKELDIKRQDINQEKALQSWTDTAHGLLDYLVHCEIDTFFIAAVAFKIQMLQLSKNLTNIAGNSWARTLTGTRAERNEYILLHEFKKNGYIVPDKQQSIRRHAEAFGAEDGLQEESLGKKKDKYKGGLVFEPQKGLYETCILVMDFNSLYPSIIQEYNICFTTVDRSPSNSDSDDQIPDTPSASANQGIFPRLIANLVERRRQIKGLLKDNSATPTQRLQWDIQQQALKLTANSMYGCLGYTKSRFYARPLAVLITYKGREALMNTKELADQMGLQVIYGDTDSVMLNTNVTDKNHALRIGNEFKEKVNERYSKLEIDIDNVYQRMLLHAKKKYAALQLDSQGKPNLDVKGLDMKRREFCTLAKEASKFCLDQILSGELTETVIENIHSYLMDFSEKMRNGKFPANKFIIFNRLGKNPEDYPNGKTMPFVQVALKKKARGENVRVGDVIPFIIAGSDADGHPADRAYSPQEIMNTNSTLVIDYNYYLSHQILPPIERVIAPIEGTNRARLAECLGLDARKYYSHETSESSAFQRYESTLTDDQCFINVSPLLLKCPSCNATSFSLRSVKSLKETLYANTVECDCGYEYSDFTIILQFSSQLRDFINLYYEGILVCDDSSCGNRTRQMSVYGKRCCNKSCRGSVHFEYNDEQLYNQIKFLLKAVQTTTGATRNGIIRCNAINKNISRIMNKNAREFVDMGLIFSS
On to B2, for which the binding entry in assay [2] is listed as “binds”.

B3: Swi6/HP1 (protein, UniProt P40381 1-328)
chain: MKKGGVRSYRRSSTSKRSVIDDDSEPELPSMTKEAIASHKADSGSSDNEVESDHESKSSSKKLKENAKEEEGGEEEEEDEYVVEKVLKHRMARKGGGYEYLLKWEGYDDPSDNTWSSEADCSGCKQLIEAYWNEHGGRPEPSKRKRTARPKKPEAKEPSPKSRKTDEDKHDKDSNEKIEDVNEKTIKFADKSQEEFNENGPPSGQPNGHIESDNESKSPSQKESNESEDIQIAETPSNVTPKKKPSPEVPKLPDNRELTVKQVENYDSWEDLVSSIDTIERKDDGTLEIYLTWKNGAISHHPSTITNKKCPQKMLQFYESHLTFRENE
As for B3, the binding entry in assay [3] is given as “binds”.
